In this experiment the target is T1, neural pentraxin-1 precursor (Nptx1), endogenous in mouse hypothalamus (mouse (endogenous in hypothalamus)) (UniProt Q62443).
T1 sequence: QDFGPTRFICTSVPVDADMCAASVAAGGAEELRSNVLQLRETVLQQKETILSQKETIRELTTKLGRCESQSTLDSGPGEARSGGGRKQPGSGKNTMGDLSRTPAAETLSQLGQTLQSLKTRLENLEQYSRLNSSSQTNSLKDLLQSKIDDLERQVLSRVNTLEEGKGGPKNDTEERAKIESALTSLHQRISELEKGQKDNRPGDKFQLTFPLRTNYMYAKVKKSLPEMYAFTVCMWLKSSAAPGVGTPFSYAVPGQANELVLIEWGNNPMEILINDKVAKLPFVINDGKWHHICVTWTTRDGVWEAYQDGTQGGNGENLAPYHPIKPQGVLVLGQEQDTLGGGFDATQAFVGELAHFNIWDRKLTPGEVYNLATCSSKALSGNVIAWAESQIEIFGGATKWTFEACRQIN
The experiment is described as follows: affinity purification with mass spectrometry; immunoprecipitation of Nptx1 from mice hypothalamus before and during puberty; blue staining, bands identified by mass spectrometry.

No constants are given. Whether binding was seen depends on the method and setting. Binding seen in cells or lysates may run through a third protein. Here binding means that the protein was enriched with, or labelled near, the bait; the list need not be complete.

B1: Makorin ring finger protein 3 (Mkrn3), endogenous in mouse hypothalamus (protein, UniProt Q60764 1-544)
chain: MEESTAPIEAHAAAGAEAGAEGGEGVSVPPPPQFEAAGASAGVSSAPLQQASGLAPLLVTPGPAIRRAASLRPAPAEGGGARSGPERNSGSWTKQILCRYYLHGQCKEGDNCRYSHDLSGRRRSRGGQDAQPRASADRGPKMATRWEPPTQEVAEAPPAASSSSLPLIGSAAERGFTEAEIDNAGIRSAAERGFSEAEIDNASLAAGAAAGAGAEGWEGAIEFVPGQPYRGRMVPPHGPEAPLQSPAIEREHMAMGMGMPMPVPMPMPVPMPVPMPLPLCRYAARGQCLRGDRCAYPHGEICDMCGQQALHPWDAAQQEAHRRACVEAHERDMELSFAVQRSMDKVCGICMEVVYEKADPSDRRFGILFSCNHTYCLRCIRRWRSATQFENRISKSCPQCRVSSGFVIPSEFWVEEEEEKEKLVQQYKEGMSQKACRYFAGGLGHCPFGEFCFYKHEYPEGWRDQPPRPDGGGSSSAYWHQVLEPVQLREGNVLFKSRKKEHSVLRLANQLLKKLLCLRGSSSFSDDRWLLLQYQLEEYFSLNL
Take B1: the binding entry was “binds”.
